In publication PMC9557730:
No constants are given. Whether binding was seen depends on the method and setting. Binding seen in cells or lysates may run through a third protein. Some results given as binding are weak or reduced against the parent protein; the word gives no strength. Where a sequence is shown, tags or fusion partners need not be part of it.

Key:
Test in all cases: co-IP; C-terminal 3x FLAG-tagged Tfb2 variants coexpressed with endogenous Tfb2 in yeast; whole-cell extract (50 mM Hepes pH 7.6, 250 mM KOAc) on FLAG-M2 agarose 2 h at 4 °C; eluted with triple FLAG peptide; Western blot for Ssl2, normalised to Tfb2
[1] = target: T1, Tfb2 YY348+350AA, C-terminal 3× FLAG-tagged (Saccharomyces cerevisiae) (UniProt Q02939)
T1 sequence: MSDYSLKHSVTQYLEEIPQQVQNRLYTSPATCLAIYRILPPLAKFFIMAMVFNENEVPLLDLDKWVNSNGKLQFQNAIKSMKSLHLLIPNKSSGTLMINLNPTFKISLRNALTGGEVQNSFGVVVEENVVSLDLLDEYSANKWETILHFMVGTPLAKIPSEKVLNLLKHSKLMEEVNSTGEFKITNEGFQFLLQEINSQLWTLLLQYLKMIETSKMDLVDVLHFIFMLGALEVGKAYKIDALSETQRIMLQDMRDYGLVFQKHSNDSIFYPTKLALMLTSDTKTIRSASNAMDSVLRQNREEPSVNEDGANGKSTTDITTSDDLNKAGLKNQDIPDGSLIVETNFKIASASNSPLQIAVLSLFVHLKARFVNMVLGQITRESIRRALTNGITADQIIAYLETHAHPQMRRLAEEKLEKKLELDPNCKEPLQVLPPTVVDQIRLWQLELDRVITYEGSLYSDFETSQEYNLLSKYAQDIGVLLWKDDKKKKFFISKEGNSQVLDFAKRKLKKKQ

[2] = target: T2, Tfb2 EK342+346RE, C-terminal 3× FLAG-tagged (Saccharomyces cerevisiae) (UniProt Q02939)
T2 sequence: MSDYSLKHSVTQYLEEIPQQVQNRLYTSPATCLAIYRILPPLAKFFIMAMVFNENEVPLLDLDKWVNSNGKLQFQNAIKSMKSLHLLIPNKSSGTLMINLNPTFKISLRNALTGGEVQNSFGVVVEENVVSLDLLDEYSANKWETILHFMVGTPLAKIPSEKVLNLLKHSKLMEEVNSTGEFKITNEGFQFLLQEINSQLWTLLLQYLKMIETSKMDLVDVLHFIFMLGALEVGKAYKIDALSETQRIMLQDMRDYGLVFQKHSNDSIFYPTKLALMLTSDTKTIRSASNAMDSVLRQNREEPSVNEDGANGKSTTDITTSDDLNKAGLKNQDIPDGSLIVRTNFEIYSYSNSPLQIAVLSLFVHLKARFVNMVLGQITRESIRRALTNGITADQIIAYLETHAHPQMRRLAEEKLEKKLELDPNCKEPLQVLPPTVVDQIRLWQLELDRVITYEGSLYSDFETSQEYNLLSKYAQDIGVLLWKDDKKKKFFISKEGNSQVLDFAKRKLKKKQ

[3] = target: T3, Tfb2 RF369–370AA, C-terminal 3× FLAG-tagged (Saccharomyces cerevisiae) (UniProt Q02939)
T3 sequence: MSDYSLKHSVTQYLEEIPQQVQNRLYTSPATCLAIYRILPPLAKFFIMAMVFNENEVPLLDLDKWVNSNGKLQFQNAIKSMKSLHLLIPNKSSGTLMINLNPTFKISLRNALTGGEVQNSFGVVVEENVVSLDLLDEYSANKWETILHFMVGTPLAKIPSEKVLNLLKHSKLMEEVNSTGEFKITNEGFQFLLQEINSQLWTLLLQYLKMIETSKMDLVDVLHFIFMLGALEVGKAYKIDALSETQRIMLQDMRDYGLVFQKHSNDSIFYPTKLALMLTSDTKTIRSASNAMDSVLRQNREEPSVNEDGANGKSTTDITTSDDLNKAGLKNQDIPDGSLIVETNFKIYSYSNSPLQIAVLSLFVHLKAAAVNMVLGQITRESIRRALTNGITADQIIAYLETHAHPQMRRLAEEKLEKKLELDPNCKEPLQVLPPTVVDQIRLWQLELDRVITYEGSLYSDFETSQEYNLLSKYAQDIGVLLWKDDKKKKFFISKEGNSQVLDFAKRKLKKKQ

[4] = target: T4, Tfb2 E447K, C-terminal 3× FLAG-tagged (Saccharomyces cerevisiae) (UniProt Q02939)
T4 sequence: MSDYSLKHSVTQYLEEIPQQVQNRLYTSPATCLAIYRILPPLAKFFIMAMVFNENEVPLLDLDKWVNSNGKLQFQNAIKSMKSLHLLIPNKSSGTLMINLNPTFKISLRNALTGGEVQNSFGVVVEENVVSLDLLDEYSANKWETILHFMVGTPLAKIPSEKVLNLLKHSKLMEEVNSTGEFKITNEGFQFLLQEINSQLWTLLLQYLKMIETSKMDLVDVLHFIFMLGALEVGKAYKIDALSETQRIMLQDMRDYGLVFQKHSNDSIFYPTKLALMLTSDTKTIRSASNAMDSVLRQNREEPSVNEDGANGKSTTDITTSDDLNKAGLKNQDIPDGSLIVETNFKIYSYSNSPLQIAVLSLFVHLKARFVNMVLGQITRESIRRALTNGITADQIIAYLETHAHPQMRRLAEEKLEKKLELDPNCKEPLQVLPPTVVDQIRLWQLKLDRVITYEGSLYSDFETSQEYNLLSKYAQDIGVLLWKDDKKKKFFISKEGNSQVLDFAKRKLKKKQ

binding [1]: no binding
binding [2]: no binding
binding [3]: no binding
binding [4]: binds
B1: Ssl2 (protein, UniProt Q00578 1-843)
chain: MTDVEGYQPKSKGKIFPDMGESFFSSDEDSPATDAEIDENYDDNRETSEGRGERDTGAMVTGLKKPRKKTKSSRHTAADSSMNQMDAKDKALLQDTNSDIPADFVPDSVSGMFRSHDFSYLRLRPDHASRPLWISPSDGRIILESFSPLAEQAQDFLVTIAEPISRPSHIHEYKITAYSLYAAVSVGLETDDIISVLDRLSKVPVAESIINFIKGATISYGKVKLVIKHNRYFVETTQADILQMLLNDSVIGPLRIDSDHQVQPPEDVLQQQLQQTAGKPATNVNPNDVEAVFSAVIGGDNEREEEDDDIDAVHSFEIANESVEVVKKRCQEIDYPVLEEYDFRNDHRNPDLDIDLKPSTQIRPYQEKSLSKMFGNGRARSGIIVLPCGAGKTLVGITAACTIKKSVIVLCTSSVSVMQWRQQFLQWCTLQPENCAVFTSDNKEMFQTESGLVVSTYSMVANTRNRSHDSQKVMDFLTGREWGFIILDEVHVVPAAMFRRVVSTIAAHAKLGLTATLVREDDKIGDLNFLIGPKLYEANWMELSQKGHIANVQCAEVWCPMTAEFYQEYLRETARKRMLLYIMNPTKFQACQFLIQYHERRGDKIIVFSDNVYALQEYALKMGKPFIYGSTPQQERMNILQNFQYNDQINTIFLSKVGDTSIDLPEATCLIQISSHYGSRRQEAQRLGRILRAKRRNDEGFNAFFYSLVSKDTQEMYYSTKRQAFLVDQGYAFKVITHLHGMENIPNLAYASPRERRELLQEVLLKNEEAAGIEVGDDADNSVGRGSNGHKRFKSKAVRGEGSLSGLAGGEDMAYMEYSTNKNKELKEHHPLIRKMYYKNLKK
